PubChem BioAssay AID504804 – Drosophila RNAi Screening Center | 2011
The deposit covers about 19,000 reagents; below is a random part of those that have a named target and a result. Of all reagents, 47 (0.25%) were called active. 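Signals are raw, not normalised; exact z-scores behind calls not deposited; actives needed confirmation, so some wells reaching 2 SD are inactive.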 No sequences are given here.

Screen: 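Fly genes whose loss lessens doxorubicin-driven cell death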 (primary screen)
Cell system: Drosophila Kc cells
Reagents: long dsRNA against Drosophila genes, 0.5 µg dsRNA per well
Timing: 96 h (48 h knock-down, then 48 h drug)
Conditions: doxorubicin 5 µg/ml for 48 h, added 48 h after dsRNA
Measured: 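Viability measured as cellular ATP by luminescence after 48 h knock-down then 48 h doxorubicin at 5 µg/ml; unnormalised plate counts for each replicate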
Reading the numbers: raw ATP luminescence: higher = more viable cells, protection from doxorubicin
Active means: 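Active when both duplicate wells lie at least 2 SD above the plate mean and protection is confirmed by rescreening and independent dsRNAs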

{"gene": "GramD1B", "amplicon": "DRSC00426", "raw ATP luminescence, replicate 1": 23337, "raw ATP luminescence, replicate 2": 28450, "call": "inactive"}
{"gene": "GramD1B", "amplicon": "DRSC00591", "raw ATP luminescence, replicate 1": 92923, "raw ATP luminescence, replicate 2": 50343, "call": "inactive"}
{"gene": "CG8004", "amplicon": "DRSC10947", "raw ATP luminescence, replicate 1": 21390, "raw ATP luminescence, replicate 2": 14737, "call": "inactive"}
{"gene": "defl", "amplicon": "DRSC10300", "raw ATP luminescence, replicate 1": 53473, "raw ATP luminescence, replicate 2": 37260, "call": "inactive"}
{"gene": "snsl", "amplicon": "DRSC00543", "raw ATP luminescence, replicate 1": 28233, "raw ATP luminescence, replicate 2": 35927, "call": "inactive"}
{"gene": "Sema1b", "amplicon": "DRSC07550", "raw ATP luminescence, replicate 1": 52573, "raw ATP luminescence, replicate 2": 53173, "call": "inactive"}
{"gene": "Cyp12e1", "amplicon": "DRSC16622", "raw ATP luminescence, replicate 1": 59103, "raw ATP luminescence, replicate 2": 62153, "call": "inactive"}
{"gene": "Gcat", "amplicon": "DRSC09719", "raw ATP luminescence, replicate 1": 64850, "raw ATP luminescence, replicate 2": 63930, "call": "inactive"}
{"gene": "Efa6", "amplicon": "DRSC13569", "raw ATP luminescence, replicate 1": 1.98e5, "raw ATP luminescence, replicate 2": 1.97e5, "call": "inactive"}
{"gene": "Efa6", "amplicon": "DRSC15312", "raw ATP luminescence, replicate 1": 29620, "raw ATP luminescence, replicate 2": 24250, "call": "inactive"}
{"gene": "Efa6", "amplicon": "DRSC16141", "raw ATP luminescence, replicate 1": 55260, "raw ATP luminescence, replicate 2": 54480, "call": "inactive"}
{"gene": "CG2812", "amplicon": "DRSC04319", "raw ATP luminescence, replicate 1": 52800, "raw ATP luminescence, replicate 2": 52637, "call": "inactive"}

Part of the list above in another layout.
| gene | amplicon | raw ATP luminescence, replicate 1 | raw ATP luminescence, replicate 2 | call |
| --- | --- | --- | --- | --- |
| GramD1B | DRSC00591 | 92923 | 50343 | inactive |
| CG8004 | DRSC10947 | 21390 | 14737 | inactive |
